# The list shows a part of the results. These are further read-outs of the screen, such as a control signal, another cell line or another target. No call is given for them. Compounds called inactive in the main read-out are mostly missing here. Potencies come from curve fits of mixed quality, noted in brackets.
# Assay: qHTS Assay for Lipid Storage Modulators in Drosophila S3 Cells;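 as to cell number change: cells counted by Cell Tracker Red CMTPX staining in the red channel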
# Conditions: BODIPY lipid droplet fluorescence, 18-24 h; for cell number change: measured here: cell count max response, cells fed with added oleic acid
# How it was run: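 Drosophila S3 cells got compounds at several concentrations plus oleic acid (400 uM solution). Laser-scanning cytometry with 488 nm excitation read lipid droplets at 500-530 nm and cells at 575-640 nm. Percent activity was relative to 20 uM Triacsin C.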
# [1] = measured here: lipid fluorescence (Fed channel) AC50, cells fed with added oleic acid
# [2] = measured here: cell number channel AC50, cells fed with added oleic acid
compound,measurement,setting,value
COc1cccc(C2NC(=O)c3sc(=S)n(-c4ccccc4)c3N2)c1 (configuration not stated),cell number change,,21.4%
same,AC50,[1],"3.26 µM [falling, partial curve]"
Cc1ccc2c3c([nH]c2c1)C(=O)CC(C)(C)S3,cell number change,,10.6%
CCC(C)c1ccc(S(=O)(=O)N2CCN(C(C)CC(=O)O)CC2)cc1 (configuration not stated),cell number change,,-48.7%
COc1ccc(CCNC(=O)Cn2c(=O)n(Cc3ccco3)c(=O)c3ccc(Cl)cc32)cc1OC,cell number change,,-52.6%
same,AC50,[2],"16.4 µM [falling, partial curve]"
same,AC50,[1],"0.146 µM [rising, full curve, poor fit]"
O=C(/C=C/c1ccccc1Cl)NCCCn1ccnc1,cell number change,,-7.94%
O=C(NC1CCCCC1)C1CCN(C(=O)NCc2ccccc2)CC1,cell number change,,7.84%
same,AC50,[1],"0.00411 µM [falling, full curve, poor fit]"
O=C(O)c1cc([N+](=O)[O-])c(Nc2cccc3ccccc23)c([N+](=O)[O-])c1,cell number change,,-4.85%
NC(=O)NCC12CC3CC(CC(C3)C1)C2,cell number change,,11.2%
same,AC50,[1],"3.66 µM [rising, single point]"
O=C(NCCN1CCCCCC1)C1CCN(S(=O)(=O)N2CCOCC2)CC1,AC50,[2],"6.51 µM [falling, single point]"
same,AC50,[1],"6.51 µM [falling, single point]"
CN(C)S(=O)(=O)c1cccc(COc2cccnc2[N+](=O)[O-])c1,cell number change,,-4.5%
same,AC50,[1],"1.84 µM [falling, full curve]"
O=S(=O)(NCCSc1ccccc1)c1ccc(F)cc1,cell number change,,-47%
same,AC50,[2],"20.6 µM [falling, single point]"
O=[N+]([O-])c1c(C(Cl)Cl)nn(-c2ccc(Cl)cc2)c1N1CCCCC1,cell number change,,-30.2%
same,AC50,[2],"1.46 µM [falling, full curve, poor fit]"
same,AC50,[1],"4.61 µM [falling, single point]"
COCCCn1c(SCC(=O)Nc2ccc(C(C)=O)cc2)nc2ccccc2c1=O,cell number change,,-34.1%
same,AC50,[2],"13 µM [falling, partial curve]"
same,AC50,[1],"2.59 µM [falling, partial curve]"
COc1ccc(C2C(C(C)=O)=C(C)N=c3s/c(=C/c4ccc5c(c4)OCO5)c(=O)n32)cc1 (configuration not stated),cell number change,,74.1%
same,AC50,[2],"0.651 µM [rising, full curve]"
same,AC50,[1],"1.03 µM [rising, full curve]"
COc1ccccc1-c1nnc(SCC(=O)N2CCCC2)o1,cell number change,,9.58%
same,AC50,[1],"0.116 µM [rising, single point]"
O=C(N/N=C\c1cc(Br)ccc1O)c1ccc(S(=O)(=O)N2CCCCC2)cc1,cell number change,,-36%
same,AC50,[2],"32.6 µM [falling, single point]"
CC(Sc1nnc(-c2ccco2)n1C)C(=O)N1C(C)CCCC1C (configuration not stated),cell number change,,-33.7%
same,AC50,[2],"35.5 µM [falling, single point]"
same,AC50,[1],"14.1 µM [falling, single point]"
CCOC(=O)c1ccc(NC(=O)N2CCc3ccccc32)cc1,cell number change,,-69.5%
same,AC50,[2],"25.9 µM [falling, single point]"
same,AC50,[1],"20.6 µM [falling, single point]"
CCOc1ccccc1OC(=O)c1ccco1,cell number change,,-10.9%
same,AC50,[2],"0.82 µM [falling, full curve]"
same,AC50,[1],"0.82 µM [falling, full curve, poor fit]"
Cc1cccc2cc(C#N)c(NCCNC(=S)NCCCN3CCOCC3)nc12,AC50,[1],"0.517 µM [falling, single point]"
CCC(C(=O)OCC(=O)Nc1ccc(OC)cc1OC)c1ccccc1 (configuration not stated),cell number change,,34.4%
same,AC50,[2],"29.1 µM [rising, single point]"
CCOC(=O)COC(=O)c1ccc(O)cc1,cell number change,,-5.68%
same,AC50,[1],"0.651 µM [falling, single point]"
NS(=O)(=O)c1ccc(Nc2nc(-c3cccc([N+](=O)[O-])c3)cs2)cc1,cell number change,,-25.2%
same,AC50,[2],"0.651 µM [rising, partial curve, poor fit]"
same,AC50,[1],"1.46 µM [rising, partial curve]"
CCN(CC)S(=O)(=O)c1cccc(C(=O)OC2CC(C)OC2=O)c1 (configuration not stated),cell number change,,25.6%
same,AC50,[1],"29.1 µM [rising, single point]"
Cc1ccc(S(=O)(=O)CCc2ccncc2)cc1,cell number change,,5.31%
Cc1ccc(N(C(C)C(=O)N2CCN(Cc3ccccc3)CC2)S(C)(=O)=O)cc1 (configuration not stated),cell number change,,-9.09%
same,AC50,[1],"2.91 µM [falling, single point]"
O=C(NCCCNc1ccc(C(F)(F)F)cc1[N+](=O)[O-])c1ccc(Cl)cc1,cell number change,,-28.7%
same,AC50,[1],"0.731 µM [falling, single point]"
CCN(CC)c1ncnc2sc(C(=O)N3CCN(c4ccccc4)CC3)c(C)c12,AC50,[2],"6.51 µM [rising, single point]"
same,AC50,[1],"0.291 µM [rising, partial curve, poor fit]"
COc1ccc(S(=O)(=O)N2CCCCC2)cc1NC(=O)c1cc(C)on1,cell number change,,52.8%
same,AC50,[1],"0.326 µM [rising, single point]"
CCc1ccc(CN(C)C(=O)c2ccc3c(c2)OCCO3)cc1,cell number change,,-19.7%
same,AC50,[1],"4.11 µM [falling, single point]"
O=C(Nc1ccc2c(c1)oc1ccccc12)c1ccc(Br)o1,cell number change,,-12.6%
same,AC50,[2],"4.11 µM [rising, single point]"
CN(CC(=O)Nc1ccc(Cl)c(Cl)c1)C(=O)CC1OC(=O)c2ccccc21 (configuration not stated),cell number change,,39%
same,AC50,[2],"9.2 µM [rising, partial curve]"
same,AC50,[1],"10.3 µM [rising, partial curve]"
Cn1c(=O)cc(OCCCC(=O)NC2CCCC2)c2ccccc21,AC50,[1],"0.651 µM [falling, single point]"
CCc1ccc(CN2CCCC(C(=O)Nc3ccccc3-c3ccc(OC)cc3)C2)o1 (configuration not stated),AC50,[1],"0.517 µM [falling, single point]"
COc1ccc(-c2cc3c(=O)n(CC(=O)Nc4cccc(Cl)c4)ncn3n2)cc1,cell number change,,15.9%
same,AC50,[1],"25.9 µM [rising, single point]"
O=C(O)CC(c1ccccc1)n1cccc1 (configuration not stated),cell number change,,7.14%
CCC(=O)N1CCc2cc(Br)cc(S(=O)(=O)NCCCN(C)Cc3ccccc3)c21,cell number change,,-0.87%
O=C(CN1C(=O)NC(Cc2c[nH]c3ccccc23)C1=O)NCCc1ccc(F)cc1 (configuration not stated),cell number change,,-18.9%
same,AC50,[1],"14.6 µM [falling, partial curve]"
COc1ccc(CNC(=O)C(c2cccs2)N(C(=O)c2csnn2)C2CC2)cc1 (configuration not stated),cell number change,,45.5%
same,AC50,[2],"6.51 µM [rising, partial curve, poor fit]"
N#CC1(NC(=O)COC(=O)c2cc([N+](=O)[O-])ccc2N2CCCC2)CCCCC1,cell number change,,-13.3%
CCCN(CC(=O)Nc1ccccc1C)C(=O)C1CC(=O)N(c2ccc(C)cc2)C1 (configuration not stated),cell number change,,-25%
same,AC50,[2],"1.84 µM [falling, partial curve]"
COc1cccc(/C=C2\SC(=O)NC2=O)c1OCc1ccc(C(=O)O)cc1,cell number change,,-46.1%
same,AC50,[2],"29.1 µM [falling, single point]"
COc1ccc(-c2nnc(SC(C(=O)c3c[nH]c4ccccc34)c3ccccc3)n2N)cc1OC (configuration not stated),AC50,[2],"4.11 µM [falling, single point]"
same,AC50,[1],"18.4 µM [falling, partial curve]"
O=C(O)CSc1nnc(Cc2ccccc2)n1Cc1ccccc1,cell number change,,2.8%
same,AC50,[1],"4.61 µM [falling, single point]"
COc1ccc(Cn2cnc3c(N)c(C)c(C)cc32)cc1,cell number change,,21.6%
Cc1cc(C)c2nc(-c3ccccn3)cc(C(=O)N3CCCC3)c2c1,cell number change,,-10.5%
same,AC50,[1],"29.1 µM [falling, single point]"
c1ccc(-c2cc(-c3nnco3)c3ccccc3n2)nc1,AC50,[1],"0.731 µM [rising, single point]"
Cc1ccc(NC(=O)C2CCCN(S(=O)(=O)c3c(C)noc3C)C2)nc1 (configuration not stated),cell number change,,-9.16%
same,AC50,[1],"2.06 µM [rising, single point]"
O=C(CCN1C(=O)/C(=C/c2ccc(F)cc2)SC1=S)Nc1cc([N+](=O)[O-])ccc1O,cell number change,,1.41%
same,AC50,[2],"6.51 µM [rising, single point]"
same,AC50,[1],"6.51 µM [rising, single point]"
CC(C)(C)c1nc(C(C)(C)C)c(Br)c(=O)[nH]1,cell number change,,-32.8%
same,AC50,[2],"1.3 µM [falling, full curve, poor fit]"
same,AC50,[1],"0.82 µM [falling, full curve]"
O=C(Oc1c(Br)cc(Br)c2cccnc12)N1CCCCC1,cell number change,,27.1%
COc1ccc(S(=O)(=O)NCc2ccc(C(=O)NCCCN3CC(C)CC(C)C3)cc2)cc1 (configuration not stated),cell number change,,-10.6%
CC(=O)/C(=C/N(C)C)Sc1ccc(C)cc1,cell number change,,-75.3%
same,AC50,[2],"7.31 µM [falling, partial curve, poor fit]"
same,AC50,[1],"18.4 µM [falling, partial curve]"
Cc1c(Cl)ccc2c(C(=O)NC(C)c3ccncc3)cc(-c3ccncc3)nc12 (configuration not stated),cell number change,,88.6%
same,AC50,[2],"6.51 µM [falling, single point]"
CC(C)N1C(=O)C2ON(c3ccccc3)C(c3cccs3)C2C1=O (configuration not stated),cell number change,,6.02%
same,AC50,[1],"5.17 µM [falling, single point]"
O=C(c1ccccc1OCc1ccccc1Br)N1CCN(c2ncccn2)CC1,cell number change,,0.842%
same,AC50,[1],"8.2 µM [falling, partial curve]"
Cn1cc(C(=O)Nc2ccc3c(c2)CCC3)cn1,cell number change,,-1.61%
same,AC50,[1],"3.66 µM [rising, single point]"
O=C(NCCC(=O)N1CCNC1=O)OCc1ccccc1,cell number change,,-0.287%
same,AC50,[1],"6.51 µM [falling, single point]"
C#CCn1c(=NC(=O)c2sc3ccccc3c2Cl)sc2cc(S(N)(=O)=O)ccc21,cell number change,,4.97%
same,AC50,[1],"0.259 µM [rising, partial curve, poor fit]"
CC12CN3CC(C)(CN(C1)C3c1ccc(Cl)cc1Cl)C2=O (configuration not stated),cell number change,,-21.5%
same,AC50,[1],"0.731 µM [falling, full curve]"

# Quoted at random: four records from the list.
compound,measurement,setting,value
C#CCn1c(=NC(=O)c2sc3ccccc3c2Cl)sc2cc(S(N)(=O)=O)ccc21,cell number change,,4.97%
COc1cccc(C2NC(=O)c3sc(=S)n(-c4ccccc4)c3N2)c1 (configuration not stated),AC50,[1],"3.26 µM [falling, partial curve]"
O=C(CN1C(=O)NC(Cc2c[nH]c3ccccc23)C1=O)NCCc1ccc(F)cc1 (configuration not stated),AC50,[1],"14.6 µM [falling, partial curve]"
O=C(c1ccccc1OCc1ccccc1Br)N1CCN(c2ncccn2)CC1,AC50,[1],"8.2 µM [falling, partial curve]"
